Primary screen of a compound library

Protein sequences, listed by entry. Tags and fused reporters are not part of them.
UniProt E9BF75, entry or part of it: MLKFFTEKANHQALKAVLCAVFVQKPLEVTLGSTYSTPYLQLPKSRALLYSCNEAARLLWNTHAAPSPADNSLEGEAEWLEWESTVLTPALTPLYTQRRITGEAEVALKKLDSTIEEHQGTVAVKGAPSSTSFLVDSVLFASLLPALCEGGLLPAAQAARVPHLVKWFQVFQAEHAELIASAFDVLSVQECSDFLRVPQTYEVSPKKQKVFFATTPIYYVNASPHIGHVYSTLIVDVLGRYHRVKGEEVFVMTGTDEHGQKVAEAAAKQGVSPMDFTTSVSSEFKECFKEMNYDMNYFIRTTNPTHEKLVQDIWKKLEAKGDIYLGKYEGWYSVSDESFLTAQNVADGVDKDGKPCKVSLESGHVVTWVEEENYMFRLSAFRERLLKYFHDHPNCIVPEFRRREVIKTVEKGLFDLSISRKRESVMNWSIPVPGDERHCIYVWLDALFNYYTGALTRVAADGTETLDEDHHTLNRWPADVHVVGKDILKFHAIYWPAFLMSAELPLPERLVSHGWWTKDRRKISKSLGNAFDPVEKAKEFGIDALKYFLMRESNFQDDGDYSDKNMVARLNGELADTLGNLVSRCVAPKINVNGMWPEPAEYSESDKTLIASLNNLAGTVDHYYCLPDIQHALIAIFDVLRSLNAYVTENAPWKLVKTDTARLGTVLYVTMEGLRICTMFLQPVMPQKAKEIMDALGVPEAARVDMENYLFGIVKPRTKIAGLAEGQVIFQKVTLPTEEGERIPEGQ

Data taken from ChEMBL document CHEMBL3988442, “University of Dundee, Small-Polar-MMV Screening Library” (2021).

LdMetRS: 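Primary screen of methionyl-tRNA synthetase; the read-out is not stated. Target: Methionyl-tRNA synthetase (putative), Leishmania donovani (UniProt E9BF75). The test concentration is not given. The values are filed as inhibition. About 68,000 compounds were tested under these conditions; 0.035% (about 24) showed 50% or more at least once.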
Mtb heat-shock: 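Assay on Mycobacterium tuberculosis, filed only as a heat shock assay from Cornell; the read-out is not stated. The concentration is filed as 10 mM, unlikely as a test dose, so the dose is not known. Higher reads as stronger inhibition (inferred: compounds with an IC50 in retests scored well above the rest). Size under these conditions: about 69,000 compounds, about 930 of them at 50% or above in at least one test.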

All values are in %. The record does not define 0% and 100%; most values in the screen are far below 50% and negative numbers occur (in some assays of this library far below -100). Compounds were drawn at random from those tested, without regard to their results. A dash means the value is not listed here; it may have been measured.

| # | structure | LdMetRS | Mtb heat-shock |
|---|---|---|---|
| 1 | `COCCCC1(CO)CCCN(CCOC)C1` (stereo unspecified) | 9.22% | 5.298% |
| 2 | `CC(=O)N1CCOC(c2nc(N(C)C)ncc2-c2cccc(F)c2)C1` (stereo unspecified) | 9.677% | -16.8% |
| 3 | `CCn1nc(C)c(CNC(=O)C2COc3ccccc3C2)c1C` (stereo unspecified) | 20.46% | 6.256% |
| 4 | `CCn1cnnc1CNC(=O)N1CCOCC1` | 10.49% | 10.92% |
| 5 | `CS(=O)(=O)NC1CCN(c2cccc(F)c2C#N)CC1` | 16.27% | 7.232% |
| 6 | `COCc1cc(C[C@@H]2CC[C@H](O)[C@@H](CN(C)C)O2)no1` | 9.774% | -11.44% |
| 7 | `[H][C@@]12OCCN(C(=O)C3CCCC3)[C@@]1([H])CC[C@H]2OCC1CCOCC1` | - | -25.83% |
| 8 | `CN(C)CCN1CCN(Cc2nccs2)Cc2cccnc21.O=C(O)C(F)(F)F.O=C(O)C(F)(F)F.O=C(O)C(F)(F)F` | - | -9.668% |
| 9 | `CC(C)c1nc(CN2CCCC2Cn2cncn2)no1` (stereo unspecified) | 7.104% | 5.138% |
| 10 | `COc1ccc2c(c1)[C@@H](CCNC(C)=O)CC(C)(C)O2` | 8.01% | -8.394% |
| 11 | `Cc1occc1C(=O)N1CCC2(CC1)CC(OCc1ccccn1)CO2.O=C(O)C(F)(F)F` (stereo unspecified) | - | -34.35% |
| 12 | `[H][C@@]12CCCN1C[C@@H](CCSC)N(Cc1cnn(CC)c1C)C2` | - | -6.708% |
| 13 | `CN(Cc1nnc(C2CC2)n1C)S(=O)(=O)c1ccccc1F` | 6.997% | -12.18% |
| 14 | `CCC(CN1CCCCC1)NC(=O)C1(c2ccc(F)cc2)CC1` (stereo unspecified) | 14.06% | - |
| 15 | `Cl.Cl.OC(CN1CCN(Cc2ccccc2)CC1)C1CC1` (stereo unspecified) | - | -35.86% |
| 16 | `CS(=O)(=O)N[C@@H]1CN(Cc2ccc3ccccc3c2)C[C@H]1O` | 14.15% | 8.031% |
| 17 | `CCN(Cc1noc(CC(C)C)n1)Cc1ccccc1OCC(=O)O` | 10% | -8.871% |
| 18 | `Cc1cncnc1C1CCN(CC(N)=O)CC1` | 8.924% | 12.96% |
| 19 | `Cc1nc(CN(C)C(=O)Nc2cccc(COC(C)C)c2)no1` | 10.14% | -22.02% |
| 20 | `CC(OCCCNC(=O)c1cccnc1O)c1ccccc1` (stereo unspecified) | 5.96% | -7.839% |
| 21 | `COc1cc(C)ccc1OCc1nc(C(=O)N2CCC(C)CC2)co1` | 10.08% | -22.46% |
| 22 | `O=C(Cc1ccccc1)N1CCC2(CC1)CN(c1ncccn1)CCO2` | 18.13% | -0.7552% |
| 23 | `O=C1CC2(CCN(CC3CCOC3)CC2)CN1Cc1cc(F)cc(F)c1` (stereo unspecified) | 12.39% | -10.18% |
| 24 | `CCc1nnc2n1CCN(C(=O)c1ccccc1OCC1CC1)C2` | -0.5236% | 3.448% |
| 25 | `O=C1CC(c2cccc(O)c2)c2sc(C(=O)O)c(-c3ccccc3)c2N1` (stereo unspecified) | 0.7407% | -10.39% |
| 26 | `CC(=O)c1cccc(C(=O)N2C[C@@H](CN3CCCCCC3)[C@@H](CO)C2)c1` | 16.2% | 2.005% |
| 27 | `Cn1cc(C[C@H]2[C@H](O)CCN2CC2CCOCC2)cn1` | 17.41% | - |
| 28 | `COc1ccc(S(=O)(=O)N[C@H]2CN(C(C)=O)C[C@@H]2C2CC2)cc1C` | 14.2% | -10.7% |
| 29 | `Cc1ccccc1C(=O)N1CCC(n2nnc3cc(F)ccc32)CC1` | 15.68% | -17.29% |
| 30 | `Cc1ncncc1C(=O)N1CCCC(n2ccnc2C)C1` (stereo unspecified) | 2.87% | 1.905% |
| 31 | `Cc1nc(C(C)C)sc1C(=O)NCCn1ccnc1` | 14.43% | -0.6367% |
| 32 | `O=C(NCc1nc(C2CC2)no1)N1CCOC(c2ccccc2F)C1` (stereo unspecified) | 8.993% | -22.31% |
| 33 | `COc1ccc(OCc2cc(C(=O)N3CC=CC3)n[nH]2)c(Cl)c1` | 5.744% | 14.94% |
| 34 | `Cc1n[nH]c(C)c1CNC(=O)NC1CCCCC1` | 11.14% | 1.663% |
| 35 | `O=C1C(N2CCOC3(CCCC3)C2)CCN1C1CC1` (stereo unspecified) | 0.8357% | -5.282% |
| 36 | `Cc1noc([C@@H]2CCCN2C(=O)C2CCN(C(=O)C3CCC3)CC2)n1` | 6.404% | -9.546% |
| 37 | `Cc1n[nH]c(C)c1CCC(=O)NC1CCCN(c2ccccc2F)C1` (stereo unspecified) | -1.902% | -8.145% |
| 38 | `CCN1CCC(CC(=O)N2CCN(c3ccccc3OC)CC2C)CC1` (stereo unspecified) | 3.015% | -17.43% |
| 39 | `CNS(=O)(=O)c1cccc(C(C)NCc2ccco2)c1` (stereo unspecified) | 3.297% | -2.412% |
| 40 | `CCn1nnc2c1C(COCCN(C)C)CN(c1nncs1)C2` (stereo unspecified) | 2.422% | -21.75% |
| 41 | `CCN1CCN(S(=O)(=O)N2CCCCCC2)[C@H]2CS(=O)(=O)C[C@H]21` | 5.986% | - |
| 42 | `Cc1nnc(N2CCCC3(CN(Cc4ccncc4)CCO3)C2)o1.O=C(O)C(F)(F)F.O=C(O)C(F)(F)F` (stereo unspecified) | - | -29.02% |
| 43 | `N#CC1COCCN1C(=O)c1cccc2cc[nH]c12` (stereo unspecified) | 13.33% | 7.529% |
| 44 | `Cc1nc(CCNC(=O)c2cc(C(C)C)nn2C)sc1C` | -19.2% | 7.927% |
| 45 | `Cc1cc(C(=O)NC(C)CC(=O)c2cccs2)n(C)n1` (stereo unspecified) | 16.52% | 14.11% |
| 46 | `Cc1nn(C)c(C)c1CNCc1cccnc1N1CCOCC1` | 19.02% | 0.5164% |
| 47 | `Cc1csc(N2CCCN(C(=O)c3csc(C)n3)CC2)n1` | 12.43% | -13.26% |
| 48 | `O=C(c1ccc(O)c(Cl)c1)N1C[C@@H](CN2CCCCCC2)[C@@H](CO)C1` | 12.29% | -6.087% |
| 49 | `CN(C)C(=O)N1CCN(Cc2cnn(C)c2)CC2(CNC(=O)C2)C1.O=C(O)C(F)(F)F` (stereo unspecified) | - | 0.6854% |
| 50 | `CCS(=O)(=O)N1CCc2ccc(NC(=O)NCc3ccccc3)cc21` | 10.7% | 12.41% |
| 51 | `Cc1ccc(F)cc1NC(=O)c1[nH]ncc1Br` | 14.21% | 25.56% |
| 52 | `COc1ccc2cc(C(=O)N3CC[C@H](CO)[C@H](O)C3)n(C)c2c1` | 16.48% | 7.713% |
| 53 | `Cc1nc(C)n(CC2CN(CCCOc3ccc(F)cc3)CCO2)n1` (stereo unspecified) | 14.74% | -12.67% |
| 54 | `Cc1nn(C)cc1CN1CCCCCC1c1ccccc1Cl` (stereo unspecified) | 7.324% | -8.916% |
| 55 | `CNC(=O)[C@H]1C[C@@H]2CN(C(=O)c3ccco3)C[C@@H]2N1S(C)(=O)=O` | 14.64% | - |
| 56 | `C1CCN(CCOC2CCNC2)CC1.Cl.Cl` (stereo unspecified) | - | -13.31% |
| 57 | `O=C1N(c2cccnc2)CCC12CCCN(Cc1ccco1)C2` (stereo unspecified) | 14.07% | - |
| 58 | `O=C(Cc1ccc(F)cc1)N1CCn2c(Cn3cncn3)cnc2C1` | 7.96% | -1.346% |
| 59 | `CC(=O)N1CCN(CCNS(=O)(=O)c2c(F)cccc2F)CC1` | 26.48% | 14.15% |
| 60 | `[H][C@]12C[C@H](C(=O)NCC3CC3)N(C(C)=O)[C@@]1([H])CN(Cc1ccco1)C2` | - | -12.49% |
| 61 | `CN1C[C@@H](n2cnc(-c3ccccc3)c2-c2c[nH]cn2)C[C@H]1C(=O)O` | 8.493% | -24.83% |
| 62 | `O=C(O)C(F)(F)F.O=C(O)C(F)(F)F.O=C(O)C(F)(F)F.[H][C@@]12C[C@@H](Oc3cccnc3)CN1CCN(C(=O)c1ccc(C)nc1)C2` | - | -27.6% |
| 63 | `Cc1nc(-c2nnc[nH]2)sc1C(=O)N1CCCC(C(F)(F)F)C1` (stereo unspecified) | 6.137% | 1.487% |
| 64 | `[H][C@@]12CCCN1C[C@@H](CCSC)N(Cc1cn(C)nc1C)C2` | - | -24.43% |
| 65 | `CN(Cc1ccc(C#N)cc1)CC1CCS(=O)(=O)C1` (stereo unspecified) | 10.3% | -6.291% |
| 66 | `CCOCCNC(=O)c1ccn(S(=O)(=O)c2ccc(C)cc2)c1` | 4.57% | -9.392% |
| 67 | `CN(C)[C@@H]1CCN(C(=O)NC2CCCC2)[C@H]1Cc1cnn(C)c1.O=C(O)C(F)(F)F` | - | 11.38% |
| 68 | `CS(=O)(=O)N1C[C@H](C(=O)Nc2cccnc2)[C@@H]2CCO[C@@H]2C1` | 9.524% | - |
| 69 | `O=C(O)C(F)(F)F.O=C(O)C(F)(F)F.O=C(O)C(F)(F)F.c1cncc(OCc2n[nH]c3c2CN(Cc2cccs2)C3)c1` | - | 12.01% |
| 70 | `O=C1NC2(CCNCC2)CC1c1cccnc1` (stereo unspecified) | 15.68% | 14.19% |
| 71 | `O=C(c1[nH]nc(C2CC2)c1Cl)N1CCCC1` | 15.96% | 2.755% |
| 72 | `OCCc1cn(CC2CCCN(Cc3nccs3)C2)nn1` (stereo unspecified) | 3.297% | -3.812% |
| 73 | `O=C(O)C(F)(F)F.[H][C@@]12COC[C@]1([H])[C@@H](OCC1CCOCC1)CN2Cc1ccsc1` | - | 11.94% |
| 74 | `CC(C)(C)NCC(=O)N1CCCC(n2ccnc2)C1` (stereo unspecified) | 19.6% | 19.11% |
| 75 | `CC1=C(C(N)=O)C(c2cn(C)nc2C)N2C(=O)CSC2=N1` (stereo unspecified) | 4.178% | 5.913% |
| 76 | `Cc1noc([C@@]23CCO[C@@H]2CCN(C(=O)C2CCOCC2)C3)n1` | 20.5% | - |
| 77 | `CN(CC1COc2ccccc2O1)C(=O)NCCCn1cncn1` (stereo unspecified) | 19.39% | 4.753% |
| 78 | `CCC(=O)N1CCC2(CC1)CC(CC(N)=O)c1ccc(F)cc12` (stereo unspecified) | 8.271% | 7.259% |
| 79 | `O=C(O)C(F)(F)F.O=C(O)C(F)(F)F.[H][C@@]12COC[C@]1([H])[C@@H](OCc1cccnc1)CN2C(=O)Cc1ccccn1` | - | -28.83% |
| 80 | `Cc1csc(N2CCN(C(=O)Cc3ccc(C)s3)CC2)n1` | 14.38% | 19.63% |
| 81 | `O=C(O)C(F)(F)F.O=C(O)C(F)(F)F.[H][C@]12C[C@@H](CN3CCCC3)N(C)[C@@]1([H])CCN(C(=O)c1cnoc1C)C2` | - | -2.686% |